From doi:10.1101/2022.08.31.505651 come the findings set out here.

Results are given in words; binding and its absence hold for the method and conditions named. In cells and extracts the contact can be indirect. Some binding calls cover weakened binding; strength is not graded here. Where a sequence is shown, tags or fusion partners need not be part of it.

For the assay, the target named is T1, 3xFLAG-NEK1 D146A (kinase-dead) (human) (UniProt Q96PY6).
T1 sequence: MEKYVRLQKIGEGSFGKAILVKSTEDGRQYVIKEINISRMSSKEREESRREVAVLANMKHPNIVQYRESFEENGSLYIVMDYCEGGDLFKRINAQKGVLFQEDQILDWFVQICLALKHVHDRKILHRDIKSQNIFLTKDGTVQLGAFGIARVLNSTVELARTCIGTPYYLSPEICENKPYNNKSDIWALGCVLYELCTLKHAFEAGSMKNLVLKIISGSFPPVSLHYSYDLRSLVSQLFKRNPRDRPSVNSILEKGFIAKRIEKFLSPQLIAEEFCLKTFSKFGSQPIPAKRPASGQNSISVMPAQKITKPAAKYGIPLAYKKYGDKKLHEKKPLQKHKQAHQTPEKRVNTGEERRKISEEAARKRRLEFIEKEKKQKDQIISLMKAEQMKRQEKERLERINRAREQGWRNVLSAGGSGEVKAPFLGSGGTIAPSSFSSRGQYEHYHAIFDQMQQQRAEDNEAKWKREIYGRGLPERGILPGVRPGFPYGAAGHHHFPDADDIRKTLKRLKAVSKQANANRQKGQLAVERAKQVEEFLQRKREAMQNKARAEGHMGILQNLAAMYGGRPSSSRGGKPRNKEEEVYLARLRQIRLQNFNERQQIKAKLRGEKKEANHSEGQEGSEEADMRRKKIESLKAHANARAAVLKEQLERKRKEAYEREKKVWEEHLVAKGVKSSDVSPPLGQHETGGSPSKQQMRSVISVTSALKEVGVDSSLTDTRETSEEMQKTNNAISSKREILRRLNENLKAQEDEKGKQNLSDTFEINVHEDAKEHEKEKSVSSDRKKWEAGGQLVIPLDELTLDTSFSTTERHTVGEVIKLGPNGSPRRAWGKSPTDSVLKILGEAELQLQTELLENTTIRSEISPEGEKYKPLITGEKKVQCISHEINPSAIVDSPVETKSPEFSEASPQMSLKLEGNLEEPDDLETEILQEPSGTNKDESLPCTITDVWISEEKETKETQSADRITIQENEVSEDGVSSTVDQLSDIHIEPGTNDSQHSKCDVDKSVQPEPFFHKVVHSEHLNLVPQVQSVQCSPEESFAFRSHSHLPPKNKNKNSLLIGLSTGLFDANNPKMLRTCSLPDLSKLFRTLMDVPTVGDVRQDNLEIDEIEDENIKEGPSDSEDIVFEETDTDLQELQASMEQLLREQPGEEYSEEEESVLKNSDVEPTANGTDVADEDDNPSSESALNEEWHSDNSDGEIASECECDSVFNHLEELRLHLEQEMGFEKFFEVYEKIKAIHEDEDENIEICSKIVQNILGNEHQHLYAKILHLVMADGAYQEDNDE
As to the kind of experiment: co-IP.

B1: 3xHA-C21ORF2 wild type (protein, UniProt O43822-1 1-256)
chain: MKLTRKMVLTRAKASELHSVRKLNCWGSRLTDISICQEMPSLEVITLSVNSISTLEPVSRCQRLSELYLRRNRIPSLAELFYLKGLPRLRVLWLAENPCCGTSPHRYRMTVLRTLPRLQKLDNQAVTEEELSRALSEGEEITAAPEREGTGHGGPKLCCTLSSLSSAAETGRDPLDSEEEATSGAQDERGLKPPSRGQFPSLSARDASSSHRGRNVLTAILLLLRELDAEGLEAVQQTVGSRLQALRGEEVQEHAE
Regarding B1, the binding result was “binds”.
